In publication PMC9233729 one finds binding data, which are given here for three molecules.

Sequences of proteins named here, by UniProt entry; tags and fusion partners are left off.
UniProt P20263: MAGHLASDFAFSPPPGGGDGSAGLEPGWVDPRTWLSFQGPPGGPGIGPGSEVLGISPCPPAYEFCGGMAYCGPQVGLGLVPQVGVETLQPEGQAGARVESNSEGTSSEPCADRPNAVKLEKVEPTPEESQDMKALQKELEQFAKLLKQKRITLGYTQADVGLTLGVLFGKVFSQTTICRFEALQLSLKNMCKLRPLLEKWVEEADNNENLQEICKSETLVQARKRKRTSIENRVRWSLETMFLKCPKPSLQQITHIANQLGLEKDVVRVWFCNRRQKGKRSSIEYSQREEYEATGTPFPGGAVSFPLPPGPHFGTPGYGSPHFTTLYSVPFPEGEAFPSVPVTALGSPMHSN
UniProt P48432: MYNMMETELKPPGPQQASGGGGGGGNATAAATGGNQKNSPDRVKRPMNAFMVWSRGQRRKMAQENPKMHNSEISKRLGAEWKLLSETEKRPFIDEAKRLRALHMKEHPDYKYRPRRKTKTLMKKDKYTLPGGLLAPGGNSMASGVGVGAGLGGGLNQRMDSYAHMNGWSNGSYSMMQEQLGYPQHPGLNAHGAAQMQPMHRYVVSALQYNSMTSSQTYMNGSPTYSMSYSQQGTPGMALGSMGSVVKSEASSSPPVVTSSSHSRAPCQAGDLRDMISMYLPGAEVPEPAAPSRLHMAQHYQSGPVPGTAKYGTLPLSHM
UniProt Q3URK3: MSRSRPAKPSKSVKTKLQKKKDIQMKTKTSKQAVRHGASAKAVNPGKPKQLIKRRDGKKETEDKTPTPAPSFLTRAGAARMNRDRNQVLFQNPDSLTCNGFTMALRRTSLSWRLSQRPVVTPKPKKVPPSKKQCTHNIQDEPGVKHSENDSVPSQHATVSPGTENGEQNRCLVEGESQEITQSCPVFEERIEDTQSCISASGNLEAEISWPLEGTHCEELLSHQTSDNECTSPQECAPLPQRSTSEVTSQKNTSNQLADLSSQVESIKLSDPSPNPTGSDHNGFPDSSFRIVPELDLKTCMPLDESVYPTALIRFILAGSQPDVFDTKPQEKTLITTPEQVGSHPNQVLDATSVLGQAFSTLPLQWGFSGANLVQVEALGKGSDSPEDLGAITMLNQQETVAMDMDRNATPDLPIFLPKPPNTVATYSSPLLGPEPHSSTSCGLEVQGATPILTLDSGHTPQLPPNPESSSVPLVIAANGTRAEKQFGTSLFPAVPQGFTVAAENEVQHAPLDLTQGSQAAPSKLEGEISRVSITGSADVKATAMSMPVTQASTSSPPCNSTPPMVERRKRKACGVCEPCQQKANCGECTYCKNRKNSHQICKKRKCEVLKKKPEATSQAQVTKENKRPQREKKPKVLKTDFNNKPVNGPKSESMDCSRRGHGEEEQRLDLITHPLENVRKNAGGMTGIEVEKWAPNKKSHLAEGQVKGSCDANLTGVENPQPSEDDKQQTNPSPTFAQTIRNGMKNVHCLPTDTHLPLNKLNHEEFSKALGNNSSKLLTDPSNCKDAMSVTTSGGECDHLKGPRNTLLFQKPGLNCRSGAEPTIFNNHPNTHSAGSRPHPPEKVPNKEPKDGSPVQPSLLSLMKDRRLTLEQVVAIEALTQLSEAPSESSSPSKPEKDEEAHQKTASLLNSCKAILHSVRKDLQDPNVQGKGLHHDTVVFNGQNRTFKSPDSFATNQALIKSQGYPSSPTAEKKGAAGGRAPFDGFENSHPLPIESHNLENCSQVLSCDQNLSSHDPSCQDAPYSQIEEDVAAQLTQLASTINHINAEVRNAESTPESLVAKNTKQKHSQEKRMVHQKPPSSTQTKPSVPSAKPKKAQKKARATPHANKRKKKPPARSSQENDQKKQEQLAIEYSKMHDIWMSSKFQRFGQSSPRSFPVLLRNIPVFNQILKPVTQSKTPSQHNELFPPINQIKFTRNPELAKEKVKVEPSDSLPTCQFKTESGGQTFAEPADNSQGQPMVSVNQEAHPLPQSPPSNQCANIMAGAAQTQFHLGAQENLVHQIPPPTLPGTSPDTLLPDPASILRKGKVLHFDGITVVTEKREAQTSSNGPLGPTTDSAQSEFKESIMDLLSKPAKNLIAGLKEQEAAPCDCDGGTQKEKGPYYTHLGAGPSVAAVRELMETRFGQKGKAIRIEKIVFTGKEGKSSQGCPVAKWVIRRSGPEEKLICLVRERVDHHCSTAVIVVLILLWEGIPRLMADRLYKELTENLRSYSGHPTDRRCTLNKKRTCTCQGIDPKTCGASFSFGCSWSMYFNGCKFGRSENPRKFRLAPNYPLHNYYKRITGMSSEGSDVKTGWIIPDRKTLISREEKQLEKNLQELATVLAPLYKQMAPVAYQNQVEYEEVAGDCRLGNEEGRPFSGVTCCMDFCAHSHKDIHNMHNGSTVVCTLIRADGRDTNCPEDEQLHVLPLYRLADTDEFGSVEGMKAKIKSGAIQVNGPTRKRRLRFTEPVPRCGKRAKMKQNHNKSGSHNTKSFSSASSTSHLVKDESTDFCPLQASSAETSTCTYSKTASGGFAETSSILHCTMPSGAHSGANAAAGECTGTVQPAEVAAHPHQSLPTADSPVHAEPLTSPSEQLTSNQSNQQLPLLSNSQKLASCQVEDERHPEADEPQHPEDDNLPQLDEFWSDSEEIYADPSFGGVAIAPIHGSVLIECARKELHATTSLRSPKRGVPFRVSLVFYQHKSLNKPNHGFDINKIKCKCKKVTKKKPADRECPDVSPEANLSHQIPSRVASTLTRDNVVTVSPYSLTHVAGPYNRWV

Assay [1] has as its target GST-tagged mouse Oct4 (mouse) (UniProt P20263). As to the kind of experiment: pull-down; GST pull-down with Glutathione Sepharose 4B from cells co-transfected with HA- and GST-tagged proteins; Western blot with anti-HA and anti-GST.
Assay [2] deals with GST-tagged mouse Sox2 (mouse) (UniProt P48432). The assay is described as above.
Assay [3] has as its target mouse Oct4 (pairwise BiFC fusion) (mouse) (UniProt P20263). As to the kind of experiment: split reporter; pairwise BiFC assay (Fig. S2B).
For assay [4], the target named is mouse Sox2 (pairwise BiFC fusion) (mouse) (UniProt P48432). As to the kind of experiment: split reporter; pairwise BiFC assay (Fig. S2B).
The target in assay [5] is HA-tagged Tet1 (UniProt Q3URK3). The assay is described as follows: co-IP; HEK293T cells co-transfected with Flag-Bend5 and HA-Tet1; immunoprecipitation with rabbit anti-Tet1 antibody; Western blot with HA and Flag antibodies. (Immunoblotting shows a protein as a band on a membrane.)

No constants are given. Whether binding was seen depends on the method and setting. In cells and extracts the contact can be indirect. Some results given as binding are weak or reduced against the parent protein; the word gives no strength. Tags and fused reporters may be left off the sequences shown.

B1: HA-tagged mouse Bend5 (protein, UniProt Q8C6D4 1-421)
chain: MYAFVRFLEDNVCYALPVSCVRDFSPRSRLDFDNQKVYAVYRGPEELGAEPESPPRAPRDWGALLLHKAQILALAEDKSDLENSVMQKKIKIPKLSLSHVEDDGEVKDYGEEDLQLRHIKRPEGRKPSEAAHKSIEAVVARLERQNGLSLGHSTCPEEVFVEASPGTEDMDSLEDAVVPRALYEELLRNYQQQQEEMRHLQQELERTRRQLVQQAKKLKEYGALVSEMKELRDLNRRLQDVLLLRLGSGPAIDLEKVKSECLEPEPELRSTFSEEANTSSYYPAPAPVMDKYILDNGKVHLGSGIWVDEEKWHQLQVTQGDSKYTKNLAVMIWGTDVLKNRSVTGVATKKKKDAIPKPPLSPHKLSIVRECLYDRIAQETVDETEIAQRLSKVNKYICEKIMDINKSCKNEERREAKYNLQ
In the case of B1, the binding result in assay [1] and in assay [2] was “binds” throughout.

B2: mouse Bend5 (pairwise BiFC fusion) (protein, UniProt Q8C6D4 1-421)
chain: B1 chain
B2: the binding result in assay [3] and in assay [4] was “binds” throughout.

B3: Flag-tagged Bend5 (protein, UniProt Q8C6D4 1-421)
chain: B1 chain
As for B3, the binding result in assay [5] is “binds”.
